Test results as given in the supplement of paper PMC10849652.
The other results are listed elsewhere or left out. Residues, ends and D or L forms follow the SMILES beside them. *: point of attachment. Cbz = O=C(OCc1ccccc1)*

By UniProt entry, the sequences of proteins in these tests, tags left out. Where a name states a change or a piece, a line headed by the entry shows the natural chain unless it says otherwise.
UniProt P41567, whole entry, looked up: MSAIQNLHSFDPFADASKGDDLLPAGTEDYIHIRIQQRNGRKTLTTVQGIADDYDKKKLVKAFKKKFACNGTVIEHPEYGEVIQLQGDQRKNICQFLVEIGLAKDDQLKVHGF
UniProt P41214: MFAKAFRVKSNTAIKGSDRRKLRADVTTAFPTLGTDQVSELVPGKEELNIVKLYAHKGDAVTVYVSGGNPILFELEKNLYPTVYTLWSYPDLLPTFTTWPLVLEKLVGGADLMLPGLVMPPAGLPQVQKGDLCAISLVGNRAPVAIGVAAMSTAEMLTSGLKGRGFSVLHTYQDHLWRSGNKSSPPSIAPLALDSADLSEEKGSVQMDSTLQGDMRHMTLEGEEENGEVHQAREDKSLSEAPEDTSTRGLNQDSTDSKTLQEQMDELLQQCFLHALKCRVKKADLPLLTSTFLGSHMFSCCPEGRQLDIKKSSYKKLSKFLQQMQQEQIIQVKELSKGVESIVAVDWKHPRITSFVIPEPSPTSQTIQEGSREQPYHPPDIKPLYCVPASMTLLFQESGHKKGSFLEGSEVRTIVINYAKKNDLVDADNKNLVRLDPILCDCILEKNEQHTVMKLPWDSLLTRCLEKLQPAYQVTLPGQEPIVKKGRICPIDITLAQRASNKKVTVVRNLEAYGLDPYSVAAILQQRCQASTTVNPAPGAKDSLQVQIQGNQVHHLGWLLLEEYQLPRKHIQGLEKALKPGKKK
UniProt Q9UBQ5, whole entry, looked up: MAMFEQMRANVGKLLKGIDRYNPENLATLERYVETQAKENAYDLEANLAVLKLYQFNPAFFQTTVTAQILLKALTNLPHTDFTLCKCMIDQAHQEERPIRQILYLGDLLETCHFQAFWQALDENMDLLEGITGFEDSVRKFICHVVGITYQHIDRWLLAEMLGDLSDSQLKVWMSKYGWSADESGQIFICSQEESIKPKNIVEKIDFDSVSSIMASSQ
UniProt O15372, whole entry, looked up: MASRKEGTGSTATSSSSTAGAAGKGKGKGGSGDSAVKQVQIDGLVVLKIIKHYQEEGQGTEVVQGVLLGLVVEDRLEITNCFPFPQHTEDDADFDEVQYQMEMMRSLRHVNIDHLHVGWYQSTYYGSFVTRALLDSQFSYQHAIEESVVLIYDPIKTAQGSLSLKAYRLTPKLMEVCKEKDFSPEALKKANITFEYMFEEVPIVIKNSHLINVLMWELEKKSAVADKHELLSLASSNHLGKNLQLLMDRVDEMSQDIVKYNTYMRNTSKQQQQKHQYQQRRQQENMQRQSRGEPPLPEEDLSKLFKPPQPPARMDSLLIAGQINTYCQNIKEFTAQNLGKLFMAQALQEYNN
UniProt Q99613, whole entry, looked up: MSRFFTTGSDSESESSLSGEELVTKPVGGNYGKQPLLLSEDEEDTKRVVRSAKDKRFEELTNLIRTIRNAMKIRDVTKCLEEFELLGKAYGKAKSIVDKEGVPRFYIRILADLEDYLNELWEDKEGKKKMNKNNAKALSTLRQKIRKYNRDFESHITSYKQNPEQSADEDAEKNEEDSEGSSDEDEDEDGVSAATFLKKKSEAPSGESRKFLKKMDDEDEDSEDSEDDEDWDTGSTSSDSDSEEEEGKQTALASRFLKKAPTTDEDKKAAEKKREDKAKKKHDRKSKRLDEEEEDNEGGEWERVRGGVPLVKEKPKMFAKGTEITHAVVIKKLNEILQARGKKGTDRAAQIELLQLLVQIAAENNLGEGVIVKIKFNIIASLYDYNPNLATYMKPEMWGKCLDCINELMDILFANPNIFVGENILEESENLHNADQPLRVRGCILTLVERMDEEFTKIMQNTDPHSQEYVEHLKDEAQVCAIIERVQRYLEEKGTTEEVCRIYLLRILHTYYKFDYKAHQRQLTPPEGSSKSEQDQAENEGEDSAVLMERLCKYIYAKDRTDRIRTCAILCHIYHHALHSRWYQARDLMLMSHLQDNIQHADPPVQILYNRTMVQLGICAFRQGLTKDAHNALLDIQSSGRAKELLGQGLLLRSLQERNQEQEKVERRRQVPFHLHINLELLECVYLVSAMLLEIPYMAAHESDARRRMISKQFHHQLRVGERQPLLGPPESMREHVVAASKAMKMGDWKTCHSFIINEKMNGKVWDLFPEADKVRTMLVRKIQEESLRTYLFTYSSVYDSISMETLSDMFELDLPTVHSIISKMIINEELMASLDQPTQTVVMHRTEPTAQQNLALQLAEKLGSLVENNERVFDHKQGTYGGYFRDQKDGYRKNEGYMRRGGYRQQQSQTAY
UniProt Q5UCC4: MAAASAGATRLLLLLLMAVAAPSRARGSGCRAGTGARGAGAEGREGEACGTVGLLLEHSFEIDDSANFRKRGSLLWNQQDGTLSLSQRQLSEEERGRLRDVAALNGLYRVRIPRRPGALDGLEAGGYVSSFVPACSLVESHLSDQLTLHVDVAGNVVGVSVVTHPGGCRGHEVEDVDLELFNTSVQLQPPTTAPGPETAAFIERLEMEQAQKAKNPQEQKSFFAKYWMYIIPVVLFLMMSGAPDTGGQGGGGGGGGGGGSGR
UniProt P98172: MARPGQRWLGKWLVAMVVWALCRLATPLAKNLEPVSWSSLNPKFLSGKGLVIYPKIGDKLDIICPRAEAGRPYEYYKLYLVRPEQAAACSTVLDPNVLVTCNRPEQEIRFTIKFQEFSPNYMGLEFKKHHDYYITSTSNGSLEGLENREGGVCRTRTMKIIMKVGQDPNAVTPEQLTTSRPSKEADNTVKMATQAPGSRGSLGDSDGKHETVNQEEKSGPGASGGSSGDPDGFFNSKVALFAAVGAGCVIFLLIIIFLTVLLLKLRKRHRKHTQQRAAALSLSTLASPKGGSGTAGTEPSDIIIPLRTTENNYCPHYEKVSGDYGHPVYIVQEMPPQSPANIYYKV
UniProt O60841: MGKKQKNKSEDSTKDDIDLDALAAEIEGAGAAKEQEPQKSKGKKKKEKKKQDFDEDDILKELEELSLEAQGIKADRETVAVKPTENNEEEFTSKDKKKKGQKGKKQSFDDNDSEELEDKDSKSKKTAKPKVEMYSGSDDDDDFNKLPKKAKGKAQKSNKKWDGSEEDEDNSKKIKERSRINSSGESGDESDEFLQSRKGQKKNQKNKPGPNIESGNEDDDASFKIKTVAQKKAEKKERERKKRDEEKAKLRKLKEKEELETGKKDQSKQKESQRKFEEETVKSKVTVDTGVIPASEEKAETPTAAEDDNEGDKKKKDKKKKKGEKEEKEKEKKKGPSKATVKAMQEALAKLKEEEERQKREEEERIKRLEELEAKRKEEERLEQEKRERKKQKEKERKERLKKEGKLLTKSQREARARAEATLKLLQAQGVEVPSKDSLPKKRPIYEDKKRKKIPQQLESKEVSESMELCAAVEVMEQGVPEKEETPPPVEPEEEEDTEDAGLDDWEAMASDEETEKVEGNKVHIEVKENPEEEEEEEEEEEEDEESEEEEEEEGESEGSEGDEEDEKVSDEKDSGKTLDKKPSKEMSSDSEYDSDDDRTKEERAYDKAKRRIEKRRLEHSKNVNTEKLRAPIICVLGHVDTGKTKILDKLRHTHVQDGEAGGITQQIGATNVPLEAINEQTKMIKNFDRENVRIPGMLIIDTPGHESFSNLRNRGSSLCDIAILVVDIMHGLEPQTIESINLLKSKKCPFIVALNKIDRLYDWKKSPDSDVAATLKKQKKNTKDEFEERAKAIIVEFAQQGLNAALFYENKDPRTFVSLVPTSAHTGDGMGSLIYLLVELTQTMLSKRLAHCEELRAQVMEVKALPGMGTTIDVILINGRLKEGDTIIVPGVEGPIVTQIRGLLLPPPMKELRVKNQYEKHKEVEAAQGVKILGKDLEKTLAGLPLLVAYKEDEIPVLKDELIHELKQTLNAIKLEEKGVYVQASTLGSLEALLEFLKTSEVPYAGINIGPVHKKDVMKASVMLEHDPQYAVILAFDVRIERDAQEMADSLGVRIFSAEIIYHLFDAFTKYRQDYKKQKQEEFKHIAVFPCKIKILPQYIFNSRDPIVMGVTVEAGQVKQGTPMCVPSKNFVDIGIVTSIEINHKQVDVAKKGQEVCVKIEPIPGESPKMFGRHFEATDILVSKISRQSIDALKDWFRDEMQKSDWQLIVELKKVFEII
UniProt Q32P44: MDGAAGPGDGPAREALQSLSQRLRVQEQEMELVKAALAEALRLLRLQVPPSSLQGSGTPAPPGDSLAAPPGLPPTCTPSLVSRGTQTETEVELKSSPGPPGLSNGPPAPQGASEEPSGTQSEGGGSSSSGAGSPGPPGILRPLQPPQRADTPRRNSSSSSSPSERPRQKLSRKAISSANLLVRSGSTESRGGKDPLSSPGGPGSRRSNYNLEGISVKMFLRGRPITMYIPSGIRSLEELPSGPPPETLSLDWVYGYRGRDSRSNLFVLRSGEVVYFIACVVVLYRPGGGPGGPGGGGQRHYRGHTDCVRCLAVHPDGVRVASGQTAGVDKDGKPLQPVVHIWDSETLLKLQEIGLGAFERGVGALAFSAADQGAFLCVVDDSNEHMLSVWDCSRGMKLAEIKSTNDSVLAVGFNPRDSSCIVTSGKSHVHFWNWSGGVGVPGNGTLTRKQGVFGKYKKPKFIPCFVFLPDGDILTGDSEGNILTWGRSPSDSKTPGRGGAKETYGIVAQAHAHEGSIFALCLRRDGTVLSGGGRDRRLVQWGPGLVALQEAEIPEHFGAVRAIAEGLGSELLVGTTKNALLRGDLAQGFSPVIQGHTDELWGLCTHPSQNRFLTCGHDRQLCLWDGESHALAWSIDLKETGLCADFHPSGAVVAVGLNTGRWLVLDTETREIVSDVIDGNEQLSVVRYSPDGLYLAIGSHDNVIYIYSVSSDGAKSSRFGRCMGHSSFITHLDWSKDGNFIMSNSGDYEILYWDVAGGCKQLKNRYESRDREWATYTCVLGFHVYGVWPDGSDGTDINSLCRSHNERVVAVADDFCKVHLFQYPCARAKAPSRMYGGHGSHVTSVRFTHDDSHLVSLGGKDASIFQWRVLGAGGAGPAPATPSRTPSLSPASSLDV
UniProt P06733, whole entry, looked up: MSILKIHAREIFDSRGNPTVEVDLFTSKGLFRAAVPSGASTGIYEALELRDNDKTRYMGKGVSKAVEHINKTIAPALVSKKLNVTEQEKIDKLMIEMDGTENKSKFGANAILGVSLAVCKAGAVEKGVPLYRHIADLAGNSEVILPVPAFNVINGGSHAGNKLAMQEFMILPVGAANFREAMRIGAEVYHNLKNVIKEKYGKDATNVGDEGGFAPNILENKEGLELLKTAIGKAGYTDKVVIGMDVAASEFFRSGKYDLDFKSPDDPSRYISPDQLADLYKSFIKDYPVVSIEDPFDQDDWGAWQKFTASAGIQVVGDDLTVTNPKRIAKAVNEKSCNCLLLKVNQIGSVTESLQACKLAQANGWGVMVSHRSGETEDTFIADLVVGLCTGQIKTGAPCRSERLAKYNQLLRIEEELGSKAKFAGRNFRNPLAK
UniProt Q96C19: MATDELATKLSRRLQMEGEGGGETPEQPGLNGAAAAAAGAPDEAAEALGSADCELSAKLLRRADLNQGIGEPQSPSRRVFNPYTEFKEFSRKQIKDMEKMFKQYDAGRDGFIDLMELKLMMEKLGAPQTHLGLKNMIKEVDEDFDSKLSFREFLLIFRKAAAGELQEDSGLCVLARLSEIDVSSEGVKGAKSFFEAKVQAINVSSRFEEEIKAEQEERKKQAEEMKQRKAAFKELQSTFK
UniProt Q9HC35: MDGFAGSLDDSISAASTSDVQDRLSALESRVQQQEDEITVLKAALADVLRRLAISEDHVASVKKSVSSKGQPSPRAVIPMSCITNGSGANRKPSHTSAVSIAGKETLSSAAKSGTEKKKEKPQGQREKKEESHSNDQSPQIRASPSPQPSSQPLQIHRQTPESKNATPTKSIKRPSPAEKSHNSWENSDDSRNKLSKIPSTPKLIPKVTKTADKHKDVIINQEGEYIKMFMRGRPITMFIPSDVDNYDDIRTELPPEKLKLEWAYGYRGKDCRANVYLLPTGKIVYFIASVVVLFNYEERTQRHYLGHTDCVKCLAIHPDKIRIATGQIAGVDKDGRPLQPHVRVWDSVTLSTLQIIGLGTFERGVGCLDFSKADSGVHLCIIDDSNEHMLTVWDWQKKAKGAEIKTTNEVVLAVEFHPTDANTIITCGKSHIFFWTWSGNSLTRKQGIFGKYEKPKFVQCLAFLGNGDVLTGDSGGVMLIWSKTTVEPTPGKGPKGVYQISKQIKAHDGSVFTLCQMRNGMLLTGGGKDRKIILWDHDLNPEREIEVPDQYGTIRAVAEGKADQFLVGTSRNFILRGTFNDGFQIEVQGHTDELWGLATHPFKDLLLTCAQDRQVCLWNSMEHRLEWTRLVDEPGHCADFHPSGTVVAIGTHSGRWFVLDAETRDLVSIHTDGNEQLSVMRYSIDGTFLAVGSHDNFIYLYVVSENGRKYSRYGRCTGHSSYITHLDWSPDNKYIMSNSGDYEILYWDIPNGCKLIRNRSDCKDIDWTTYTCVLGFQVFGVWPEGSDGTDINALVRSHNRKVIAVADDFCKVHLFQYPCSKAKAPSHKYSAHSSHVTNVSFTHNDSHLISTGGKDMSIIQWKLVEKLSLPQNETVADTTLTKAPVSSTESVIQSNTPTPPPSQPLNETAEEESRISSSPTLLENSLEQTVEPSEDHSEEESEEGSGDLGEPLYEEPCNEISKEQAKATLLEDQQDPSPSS

Tests used:
Experiment in all cases: log2 fold change, soluble protein after heating vs DMSO (PISA); higher = thermal stabilisation; K562 cells, 10 uM, 30 min; active = over 0.2 and 3.5 SD of the protein, either way, in both replicates (recomputed)
IRAK-1-4 Inhibitor I = compound: C1COCCN1CCN2C3=CC=CC=C3N=C2NC(=O)C4=CC(=CC=C4)[N+](=O)[O-] [IRAK-1-4 Inhibitor I]
In short: (§1)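 Thermal stability values are relative to control samples and come from duplicates. They are expressed as log2 fold changes. For measurement, K562 cells (2×10^6 cells/mL) received 10 μM compound for 30 min, and aliquots were heated for 3 min over 48°C-58°C, pooled, and extracted at 4°C in PBS with 0.5% NP-40. Soluble protein, the supernatant after 21,000xg for 90 min, was quantified by TMTpro 16plex LC-MS/MS with equalised channel sums.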

ibrutinib = compound: C=CC(=O)N1CCC[C@@H](n2nc(-c3ccc(Oc4ccccc4)cc3)c3c(N)ncnc32)C1 [ibrutinib]
In short: as §1

[1] = compound: CC(=O)c1cnc2ccc(-c3cc(Cl)c(O)c(Cl)c3)nc2c1N[C@H]1CC[C@H](CN(C)C)CC1
In short: as §1

ralimetinib = compound: CC(C)(C)Cn1c(N)nc2ccc(-c3[nH]c(C(C)(C)C)nc3-c3ccc(F)cc3)nc21 [ralimetinib]
In short: as §1

[2] = compound: CC(C)(O)CC(=O)NCCn1ccc2ncnc(Nc3ccc(Oc4cccc(C(F)(F)F)c4)c(Cl)c3)c21
In short: as §1

[3] = compound: CC(C)C1=C2N=C(C=C(N2N=C1)NCC3=CC=CC=C3)NCCCCCCN
In short: as §1

[4] = compound: CC(C)C[C@@H](C=O)NC(=O)[C@H](CC(C)C)NC(=O)[C@H](CC(C)C)NC(=O)OCc1ccccc1
In short: as §1

pinometostat = compound: CC(C)N(C[C@H]1O[C@@H](n2cnc3c(N)ncnc32)[C@H](O)[C@@H]1O)[C@H]1C[C@@H](CCc2nc3cc(C(C)(C)C)ccc3[nH]2)C1 [pinometostat]
In short: as §1

[5] = compound: CC1=C(C(CC(=O)N1)C2=CC=C(C=C2)C(F)(F)F)C(=O)NC3=C(C=C4C(=C3)C=NN4)F
In short: as §1

[6] = compound: CC1=C(C2=C(C=C1)C(=O)C3=CC=CC=C3N2CCCN)C
In short: as §1

Measured: log2 fold change

ENOPH1 (UniProt Q9UHY7)
inactive: IRAK-1-4 Inhibitor I -0.096 | ibrutinib -0.025 | [1] -0.068 | ralimetinib 0.04 | [2] -0.143 | [3] -0.329 | [4] -0.031 | pinometostat 0.058 | [5] -0.041 | [6] -0.2

EML2 isoform 3 (UniProt O95834)
inactive: IRAK-1-4 Inhibitor I 0.03 | ibrutinib 0.01 | [1] -0.015 | ralimetinib 0.015 | [2] -0.019 | [3] -0.033 | [4] -0.019 | pinometostat 0.008 | [5] 0.001 | [6] 0.08

EIF5 (UniProt P55010)
inactive: IRAK-1-4 Inhibitor I 0.025 | ibrutinib -0.015 | [1] -0.004 | ralimetinib -0.02 | [2] 0.001 | [3] -0.033 | [4] 0.014 | pinometostat -0.017 | [5] -0.016 | [6] 0.09

EIF6 (UniProt P56537)
inactive: IRAK-1-4 Inhibitor I 0.044 | ibrutinib 0.04 | [1] 0.015 | ralimetinib -0.036 | [2] 0.058 | [3] 0.08 | [4] 0.006 | pinometostat -0.026 | [5] 0.053 | [6] 0.09

EMP3 (UniProt P54852)
inactive: IRAK-1-4 Inhibitor I -0.016 | ibrutinib 0.025 | [1] -0.087 | ralimetinib -0.119 | [2] 0.034 | [3] 0.166 | [4] -0.002 | pinometostat -0.019 | [5] -0.091 | [6] 0.002

EEFSEC (UniProt P57772)
inactive: IRAK-1-4 Inhibitor I 0.001 | ibrutinib 0.057 | [1] 0.02 | ralimetinib 0.051 | [2] -0.019 | [3] -0.096 | [4] -0.049 | pinometostat 0.117 | [5] 0.014 | [6] 0.169

ELP5 isoform 4 (UniProt Q8TE02)
inactive: IRAK-1-4 Inhibitor I 0.044 | ibrutinib 0.02 | [1] -0.036 | ralimetinib -0.011 | [2] -0.018 | [3] 0.097 | [4] 0.059 | pinometostat -0.044 | [5] -0.012 | [6] 0.045

EIF3D (UniProt O15371)
inactive: IRAK-1-4 Inhibitor I -0.179 | ibrutinib -0.038 | [1] -0.024 | ralimetinib 0.135 | [2] -0.034 | [3] -0.332 | [4] 0.101 | pinometostat 0.22 | [5] 0.048 | [6] -0.109

ELP2 isoform 6 (UniProt Q6IA86)
inactive: IRAK-1-4 Inhibitor I 0.003 | ibrutinib 0.013 | [1] -0.015 | ralimetinib -0.057 | [2] -0.023 | [3] 0.006 | [4] -0.05 | pinometostat -0.001 | [5] 0.047 | [6] 0.015

EIF1 (UniProt P41567)
inactive: IRAK-1-4 Inhibitor I 0.074 | ibrutinib 0.074 | [1] 0 | ralimetinib -0.064 | [2] 0.059 | [3] 0.091 | [4] 0.012 | pinometostat -0.025 | [5] 0.061 | [6] -0.089

EIF2D (UniProt P41214)
inactive: IRAK-1-4 Inhibitor I -0.188 | ibrutinib -0.026 | [1] -0.108 | ralimetinib 0.111 | [2] -0.139 | [3] -0.294 | [4] 0.032 | pinometostat 0.207 | [5] 0.04 | [6] -0.032

EIF3K (UniProt Q9UBQ5)
inactive: IRAK-1-4 Inhibitor I -0.022 | ibrutinib -0.017 | [1] -0.003 | ralimetinib 0.03 | [2] -0.079 | [3] -0.065 | [4] -0.022 | pinometostat -0.018 | [5] 0.031 | [6] 0.095

EHMT2 (UniProt Q96KQ7)
inactive: IRAK-1-4 Inhibitor I -0.09 | ibrutinib -0.034 | [1] -0.015 | ralimetinib 0.004 | [2] -0.064 | [3] -0.046 | [4] 0.061 | pinometostat 0.132 | [5] 0.001 | [6] 0.026

EIF3H (UniProt O15372)
inactive: IRAK-1-4 Inhibitor I -0.069 | ibrutinib -0.064 | [1] 0.02 | ralimetinib 0.075 | [2] -0.072 | [3] -0.068 | [4] 0.009 | pinometostat 0.039 | [5] 0.046 | [6] -0.06

EIF3C (UniProt Q99613)
inactive: IRAK-1-4 Inhibitor I -0.195 | ibrutinib -0.056 | [1] 0.045 | ralimetinib 0.051 | [2] -0.007 | [3] -0.245 | [4] 0.077 | pinometostat 0.174 | [5] 0.053 | [6] -0.077

EEF2 (UniProt P13639)
inactive: IRAK-1-4 Inhibitor I 0.034 | ibrutinib 0.003 | [1] -0.009 | ralimetinib -0.007 | [2] -0.012 | [3] 0.062 | [4] -0.002 | pinometostat -0.056 | [5] 0.008 | [6] 0.001

EMC10 (UniProt Q5UCC4)
inactive: IRAK-1-4 Inhibitor I 0.022 | ibrutinib 0.047 | [1] -0.041 | ralimetinib -0.015 | [2] -0.046 | [3] 0.011 | [4] 0.017 | pinometostat 0.012 | [5] -0.023 | [6] 0.031

ELP4 (UniProt Q96EB1)
inactive: IRAK-1-4 Inhibitor I -0.007 | ibrutinib 0.062 | [1] 0.044 | ralimetinib -0.056 | [2] -0.04 | [3] 0.107 | [4] 0.02 | pinometostat 0.085 | [5] -0.029 | [6] 0.104

Reprinted from the listing (eight entries):
ELP2 isoform 6 (UniProt Q6IA86)
inactive: IRAK-1-4 Inhibitor I 0.003 | ibrutinib 0.013 | [1] -0.015 | ralimetinib -0.057 | [2] -0.023 | [3] 0.006 | [4] -0.05 | pinometostat -0.001 | [5] 0.047 | [6] 0.015

EIF1 (UniProt P41567)
inactive: IRAK-1-4 Inhibitor I 0.074 | ibrutinib 0.074 | [1] 0 | ralimetinib -0.064 | [2] 0.059 | [3] 0.091 | [4] 0.012 | pinometostat -0.025 | [5] 0.061 | [6] -0.089

EIF2D (UniProt P41214)
inactive: IRAK-1-4 Inhibitor I -0.188 | ibrutinib -0.026 | [1] -0.108 | ralimetinib 0.111 | [2] -0.139 | [3] -0.294 | [4] 0.032 | pinometostat 0.207 | [5] 0.04 | [6] -0.032

EIF3K (UniProt Q9UBQ5)
inactive: IRAK-1-4 Inhibitor I -0.022 | ibrutinib -0.017 | [1] -0.003 | ralimetinib 0.03 | [2] -0.079 | [3] -0.065 | [4] -0.022 | pinometostat -0.018 | [5] 0.031 | [6] 0.095

EHMT2 (UniProt Q96KQ7)
inactive: IRAK-1-4 Inhibitor I -0.09 | ibrutinib -0.034 | [1] -0.015 | ralimetinib 0.004 | [2] -0.064 | [3] -0.046 | [4] 0.061 | pinometostat 0.132 | [5] 0.001 | [6] 0.026

EIF3H (UniProt O15372)
inactive: IRAK-1-4 Inhibitor I -0.069 | ibrutinib -0.064 | [1] 0.02 | ralimetinib 0.075 | [2] -0.072 | [3] -0.068 | [4] 0.009 | pinometostat 0.039 | [5] 0.046 | [6] -0.06

EIF3C (UniProt Q99613)
inactive: IRAK-1-4 Inhibitor I -0.195 | ibrutinib -0.056 | [1] 0.045 | ralimetinib 0.051 | [2] -0.007 | [3] -0.245 | [4] 0.077 | pinometostat 0.174 | [5] 0.053 | [6] -0.077

EEF2 (UniProt P13639)
inactive: IRAK-1-4 Inhibitor I 0.034 | ibrutinib 0.003 | [1] -0.009 | ralimetinib -0.007 | [2] -0.012 | [3] 0.062 | [4] -0.002 | pinometostat -0.056 | [5] 0.008 | [6] 0.001

(next part)

EFNB1 (UniProt P98172)
inactive: IRAK-1-4 Inhibitor I -0.099 | ibrutinib 0.031 | [1] 0.003 | ralimetinib 0.025 | [2] -0.194 | [3] 0.05 | [4] -0.125 | pinometostat 0.133 | [5] 0.062 | [6] 0.055

ELP1 (UniProt O95163)
inactive: IRAK-1-4 Inhibitor I -0.003 | ibrutinib 0.016 | [1] -0.004 | ralimetinib -0.054 | [2] -0.005 | [3] 0.043 | [4] 0 | pinometostat -0.007 | [5] 0.01 | [6] 0.015

EIF5B (UniProt O60841)
inactive: IRAK-1-4 Inhibitor I -0.056 | ibrutinib -0.032 | [1] -0.048 | ralimetinib 0.125 | [2] 0.016 | [3] -0.013 | [4] 0.079 | pinometostat 0.145 | [5] -0.031 | [6] -0.086

EEF1A2 (UniProt Q05639)
inactive: IRAK-1-4 Inhibitor I 0.022 | ibrutinib 0.007 | [1] -0.028 | ralimetinib -0.03 | [2] -0.001 | [3] 0.009 | [4] -0.016 | pinometostat -0.031 | [5] -0.007 | [6] -0.01

EIF4H (UniProt Q15056)
inactive: IRAK-1-4 Inhibitor I 0.02 | ibrutinib -0.033 | [1] -0.025 | ralimetinib -0.013 | [2] 0.011 | [3] -0.06 | [4] 0.037 | pinometostat -0.064 | [5] 0.034 | [6] -0.043

EPB41 (UniProt P11171)
inactive: IRAK-1-4 Inhibitor I 0.011 | ibrutinib -0.011 | [1] -0.099 | ralimetinib 0.004 | [2] -0.011 | [3] -0.044 | [4] 0.012 | pinometostat 0.018 | [5] -0.027 | [6] 0.025

EHHADH (UniProt Q08426)
inactive: IRAK-1-4 Inhibitor I -0.029 | ibrutinib 0.014 | [1] -0.037 | ralimetinib -0.016 | [2] -0.04 | [3] 0.099 | [4] -0.011 | pinometostat 0.008 | [5] -0.001 | [6] 0.156

EML3 isoform 2 (UniProt Q32P44)
inactive: IRAK-1-4 Inhibitor I -0.01 | ibrutinib 0.074 | [1] 0 | ralimetinib 0.34 | [2] 0.032 | [3] 0.033 | [4] 0.111 | pinometostat 0.272 | [5] 0.069 | [6] 0.055

ENO1 (UniProt P06733)
inactive: IRAK-1-4 Inhibitor I 0.038 | ibrutinib -0.023 | [1] -0.004 | ralimetinib -0.011 | [2] 0.04 | [3] 0.056 | [4] 0.023 | pinometostat -0.039 | [5] 0.035 | [6] 0

EFTUD2 (UniProt Q15029)
inactive: IRAK-1-4 Inhibitor I 0.022 | ibrutinib 0.023 | [1] 0.047 | ralimetinib -0.03 | [2] 0.032 | [3] 0.106 | [4] -0.008 | pinometostat -0.029 | [5] 0.018 | [6] 0.004

EFHD2 (UniProt Q96C19)
inactive: IRAK-1-4 Inhibitor I 0 | ibrutinib -0.06 | [1] 0.059 | ralimetinib -0.089 | [2] -0.079 | [3] -0.179 | [4] -0.027 | pinometostat -0.012 | [5] -0.013 | [6] -0.161

EML4 (UniProt Q9HC35)
inactive: IRAK-1-4 Inhibitor I -0.053 | ibrutinib -0.016 | [1] 0.033 | ralimetinib 0.167 | [2] -0.029 | [3] -0.17 | [4] 0.139 | pinometostat 0.232 | [5] -0.02 | [6] -0.129
